The target of one assay is human CGRP (human) (UniProt P06881). Nature of the assay: ELISA. In general terms: In an ELISA, binding on a coated surface is turned into a signal by an enzyme label.
A further assay addresses T1, rat CGRP (rat) (UniProt P01256).
T1 sequence (peptide, looked up): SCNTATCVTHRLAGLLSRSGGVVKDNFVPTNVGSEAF
Nature of the assay: ELISA.

19 molecules from patent publication US20260176358A1 can be followed below.

Results are given in words; binding and its absence hold for the method and conditions named. Some entries that bind do so weakly or less than the wild type.

B1: C9#-CHI (antibody, human IgG1, kappa, V domains shown)
VH: EVQLQQSGPVLVKPGASVKMSCKASGYTFTDYYMNWVKQSLGKSLEWIGVINPYNGRTTYNRKFKGKATLTVDKSSSTAYMELNSLTSEDSAVYYCASLLIRPHYFDYWGQGTTLTVSS
VL: DIVMTQSQKFMATSVGDRVSVTCKASQNVGTNVAWYQQKPGQSPKALIYSASYRYSVVPDRFTGSGSGTDFTLTIRNVQSEDLAEYHCQQYNFYPYTFGAGTKLELKR
As to B1, the binding result with human CGRP (human) and with rat CGRP (rat) was “binds” each time.

B2: C21#-CHI (antibody, human IgG1, kappa, V domains shown)
VH: EVQLQQSGPELVKPGASVRISCKASGYTFTDYYMNWVRQSHRKSLEWIGDINPNNGGTNYNQKFKGKATLTVDKSSSTAYMELRSLTSEDSAVYYCASIIIVPNYFDYWGQGTTLTVSS
VL: DIVMTQSQKFMSTSVGDRVSVTCKASQNVDTNVAWFQQRPGQSPKALIYSASYRYSGVPDRFTGSGSGTDFTLTISNVQSEDLADYFCQQYNNYPYTFGGGTKLEIER
Regarding B2, the binding result in the assay with human CGRP (human) and with rat CGRP (rat) was “binds” throughout.

B3: C1H1L1 (antibody, human IgG1, kappa, V domains shown)
VH: EVQLVQSGAEVKKPGSSVKVSCKASGYTFSTSWMNWVRQAPGQGLEWMGQIYPGDGYTNYSGKFRGRVTITADKSTSTAYMELSSLRSEDTAVYYCAGDYEALWGQGTTVTVSS
VL: DIVMTQTPLSLPVTPGEPASISCRSSQSLVHSNGNTYFHWYLQKPGQSPQLLIYEVSNRFSGVPDRFSGSGSGTDFTLKISRVEAEDVGVYYCSQSTHVPFTFGQGTKLEIKR
With B3, the binding result in the assay with human CGRP (human) and with rat CGRP (rat) was “binds” in each case.

B4: C1H2L1 (antibody, human IgG1, kappa, V domains shown)
VH: EVQLVQSGAEVKKPGSSVKVSCKASGYTFSTSWMNWVRQAPGQGLEWMGQIYPGDGYTNYQGKFRGRVTITADKSTSTAYMELSSLRSEDTAVYYCAGDYEALWGQGTTVTVSS
VL: DIVMTQTPLSLPVTPGEPASISCRSSQSLVHSNGNTYFHWYLQKPGQSPQLLIYEVSNRFSGVPDRFSGSGSGTDFTLKISRVEAEDVGVYYCSQSTHVPFTFGQGTKLEIKR
Regarding B4, the binding result with human CGRP (human) and with rat CGRP (rat) was “binds” throughout.

B5: C1H1L2 (antibody, human IgG1, kappa, V domains shown)
VH: EVQLVQSGAEVKKPGSSVKVSCKASGYTFSTSWMNWVRQAPGQGLEWMGQIYPGDGYTNYSGKFRGRVTITADKSTSTAYMELSSLRSEDTAVYYCAGDYEALWGQGTTVTVSS
VL: DIVMTQTPLSLPVTPGEPASISCRSSQSLVHSSGNTYFHWYLQKPGQSPQLLIYEVSNRFSGVPDRFSGSGSGTDFTLKISRVEAEDVGVYYCSQSTHVPFTFGQGTKLEIKR
Take B5: the binding result in the assay with human CGRP (human) and in the assay with rat CGRP (rat) was “binds” in each case.

B6: C1#-CHI (antibody, human IgG1, kappa, V domains shown)
VH: QVQLQQSGAELVRPGSSVKISCKASGYTFSTSWMNWVKQRPGQGLEWIGQIYPGDGYTNYNGKFRGKATLTADKSSSTAYMQLSSLTSEDSAVYFCAGDYEALWGQGTTLTVSS
VL: DVVMTQTPLSLPVSLGDQASISCRSSQSLVHSNGNTYFHWYLQRPGQSPKLLIYEVSNRFSGVPDRFSGSGSGTDFTLKISRVEAEDLGVYFCSQSTHVPFTFGSGTKLEIKR
Turning to B6, the binding entry in the assay with human CGRP (human) and with rat CGRP (rat) was “binds” each time.

B7: C1H3L2 (antibody, human IgG1, kappa, V domains shown)
VH: EVQLVQSGAEVKKPGSSVKVSCKASGYTFSTSWMNWVRQAPGQGLEWMGQIYPGDGYTNYNVKFRGRVTITADKSTSTAYMELSSLRSEDTAVYYCAGDYEALWGQGTTVTVSS
VL: DIVMTQTPLSLPVTPGEPASISCRSSQSLVHSSGNTYFHWYLQKPGQSPQLLIYEVSNRFSGVPDRFSGSGSGTDFTLKISRVEAEDVGVYYCSQSTHVPFTFGQGTKLEIKR
With B7, the binding entry in the assay with human CGRP (human) and with rat CGRP (rat) was “binds” each time.

B8: C1H3L1 (antibody, human IgG1, kappa, V domains shown)
VH: EVQLVQSGAEVKKPGSSVKVSCKASGYTFSTSWMNWVRQAPGQGLEWMGQIYPGDGYTNYNVKFRGRVTITADKSTSTAYMELSSLRSEDTAVYYCAGDYEALWGQGTTVTVSS
VL: DIVMTQTPLSLPVTPGEPASISCRSSQSLVHSNGNTYFHWYLQKPGQSPQLLIYEVSNRFSGVPDRFSGSGSGTDFTLKISRVEAEDVGVYYCSQSTHVPFTFGQGTKLEIKR
Consider B8, for which the binding entry with human CGRP (human) and with rat CGRP (rat) was “binds” in each case.

B9: C9H1L1 (antibody, human IgG1, kappa, V domains shown)
VH: EVQLVQSGAEVKKPGASVKVSCKASGYTFTDYYMNWVRQAPGQRLEWMGVINPYNVRTTYNRKFKGRVTITVDKSASTAYMELSSLRSEDTAVYYCASLLIRPHYFDYWGQGTTVTVSS
VL: DIQMTQSPSSLSASVGDRVTITCKASQNVGTNVAWYQQKPGKSPKALIYSASYRYSGVPSRFSGSGSGTDFTLTISSLQPEDVATYHCQQYNFYPYTFGQGTKLEIKR
In the case of B9, the binding result in the assay with human CGRP (human) and with rat CGRP (rat) was “binds” each time.

B10: C9H5L1 (antibody, human IgG1, kappa, V domains shown)
VH: EVQLVQSGAEVKKPGASVKVSCKASGYTFTDYYMNWVRQAPGQRLEWMGVINPYSGRTTYNRKFKGRVTITVDKSASTAYMELSSLRSEDTAVYYCASLLIRPHYFDYWGQGTTVTVSS
VL: DIQMTQSPSSLSASVGDRVTITCKASQNVGTNVAWYQQKPGKSPKALIYSASYRYSGVPSRFSGSGSGTDFTLTISSLQPEDVATYHCQQYNFYPYTFGQGTKLEIKR
For the molecule B10, the binding entry with human CGRP (human) and with rat CGRP (rat) was “binds” throughout.

B11: C21H1L1 (antibody, human IgG1, kappa, V domains shown)
VH: EVQLVQSGAEVKKPGASVKVSCKASGYTFTDYYMNWVRQAPGQRLEWIGDINPNNVGTNYNQKFKGRATLTVDKSASTAYMELSSLRSEDTAVYYCASIIIVPNYFDYWGQGTTVTVSS
VL: DIQMTQSPSSLSASVGDRVTITCKASQNVDTNVAWFQQKPGKAPKSLIYSASYRYSGVPSRFSGSGSGTDFTLTISSLQPEDFATYYCQQYNNYPYTFGGGTKVEIKR
With B11, the binding entry with human CGRP (human) and with rat CGRP (rat) was “binds” each time.

B12: C9H7L1 (antibody, human IgG1, kappa, V domains shown)
VH: EVQLVQSGAEVKKPGASVKVSCKASGYTFTDYYMNWVRQAPGQRLEWMGVINPYTGRTTYNRKFKGRVTITVDKSASTAYMELSSLRSEDTAVYYCASLLIRPHYFDYWGQGTTVTVSS
VL: DIQMTQSPSSLSASVGDRVTITCKASQNVGTNVAWYQQKPGKSPKALIYSASYRYSGVPSRFSGSGSGTDFTLTISSLQPEDVATYHCQQYNFYPYTFGQGTKLEIKR
As to B12, the binding entry with human CGRP (human) and with rat CGRP (rat) was “binds” each time.

B13: C21H2L1 (antibody, human IgG1, kappa, V domains shown)
VH: EVQLVQSGAEVKKPGASVKVSCKASGYTFTDYYMNWVRQAPGQRLEWIGDINPNQGGTNYNQKFKGRATLTVDKSASTAYMELSSLRSEDTAVYYCASIIIVPNYFDYWGQGTTVTVSS
VL: DIQMTQSPSSLSASVGDRVTITCKASQNVDTNVAWFQQKPGKAPKSLIYSASYRYSGVPSRFSGSGSGTDFTLTISSLQPEDFATYYCQQYNNYPYTFGGGTKVEIKR
Consider B13, for which the binding result with human CGRP (human) and with rat CGRP (rat) was “binds” in each case.

B14: C9H2L1 (antibody, human IgG1, kappa, V domains shown)
VH: EVQLVQSGAEVKKPGASVKVSCKASGYTFTDYYMNWVRQAPGQRLEWIGVINPYNVRTTYNRKFKGRATLTVDKSASTAYMELSSLRSEDTAVYYCASLLIRPHYFDYWGQGTTVTVSS
VL: DIQMTQSPSSLSASVGDRVTITCKASQNVGTNVAWYQQKPGKSPKALIYSASYRYSGVPSRFSGSGSGTDFTLTISSLQPEDVATYHCQQYNFYPYTFGQGTKLEIKR
With B14, the binding result with human CGRP (human) and with rat CGRP (rat) was “binds” each time.

B15: C9H8L1 (antibody, human IgG1, kappa, V domains shown)
VH: EVQLVQSGAEVKKPGASVKVSCKASGYTFTDYYMNWVRQAPGQRLEWIGVINPYTGRTTYNRKFKGRATLTVDKSASTAYMELSSLRSEDTAVYYCASLLIRPHYFDYWGQGTTVTVSS
VL: DIQMTQSPSSLSASVGDRVTITCKASQNVGTNVAWYQQKPGKSPKALIYSASYRYSGVPSRFSGSGSGTDFTLTISSLQPEDVATYHCQQYNFYPYTFGQGTKLEIKR
B15: the binding entry with human CGRP (human) and with rat CGRP (rat) was “binds” each time.

B16: C9H3L1 (antibody, human IgG1, kappa, V domains shown)
VH: EVQLVQSGAEVKKPGASVKVSCKASGYTFTDYYMNWVRQAPGQRLEWMGVINPYQGRTTYNRKFKGRVTITVDKSASTAYMELSSLRSEDTAVYYCASLLIRPHYFDYWGQGTTVTVSS
VL: DIQMTQSPSSLSASVGDRVTITCKASQNVGTNVAWYQQKPGKSPKALIYSASYRYSGVPSRFSGSGSGTDFTLTISSLQPEDVATYHCQQYNFYPYTFGQGTKLEIKR
Turning to B16, the binding entry in the assay with human CGRP (human) and with rat CGRP (rat) was “binds” throughout.

B17: C9H6L1 (antibody, human IgG1, kappa, V domains shown)
VH: EVQLVQSGAEVKKPGASVKVSCKASGYTFTDYYMNWVRQAPGQRLEWIGVINPYSGRTTYNRKFKGRATLTVDKSASTAYMELSSLRSEDTAVYYCASLLIRPHYFDYWGQGTTVTVSS
VL: DIQMTQSPSSLSASVGDRVTITCKASQNVGTNVAWYQQKPGKSPKALIYSASYRYSGVPSRFSGSGSGTDFTLTISSLQPEDVATYHCQQYNFYPYTFGQGTKLEIKR
In the case of B17, the binding result with human CGRP (human) and with rat CGRP (rat) was “binds” each time.

B18: C9H4L1 (antibody, human IgG1, kappa, V domains shown)
VH: EVQLVQSGAEVKKPGASVKVSCKASGYTFTDYYMNWVRQAPGQRLEWIGVINPYQGRTTYNRKFKGRATLTVDKSASTAYMELSSLRSEDTAVYYCASLLIRPHYFDYWGQGTTVTVSS
VL: DIQMTQSPSSLSASVGDRVTITCKASQNVGTNVAWYQQKPGKSPKALIYSASYRYSGVPSRFSGSGSGTDFTLTISSLQPEDVATYHCQQYNFYPYTFGQGTKLEIKR
For the molecule B18, the binding result with human CGRP (human) and with rat CGRP (rat) was “binds” in each case.

B19: C21H1L2 (antibody, human IgG1, kappa, V domains shown)
VH: EVQLVQSGAEVKKPGASVKVSCKASGYTFTDYYMNWVRQAPGQRLEWIGDINPNNVGTNYNQKFKGRATLTVDKSASTAYMELSSLRSEDTAVYYCASIIIVPNYFDYWGQGTTVTVSS
VL: DIQMTQSPSSLSASVGDRVTITCKASQNVDTNVAWFQQKPGKSPKALIYSASYRYSGVPSRFSGSGSGTDFTLTISSLQPEDFATYYCQQYNNYPYTFGGGTKVEIKR
In the case of B19, the binding result with human CGRP (human) and in the assay with rat CGRP (rat) was “binds” in each case.
